Experimental data reported in publication PMC8169952.
These are yes or no findings as the source states them, for the method shown. In cells and extracts the contact can be indirect. Some binding calls cover weakened binding; strength is not graded here. Blank lines part the entries; values can stand above or below the molecule they belong to.

Protein sequences, listed by entry. Tags and fused reporters are not part of them. Lines headed by an entry give the natural chain unless they say otherwise; changes in a name come on top.
UniProt O60603: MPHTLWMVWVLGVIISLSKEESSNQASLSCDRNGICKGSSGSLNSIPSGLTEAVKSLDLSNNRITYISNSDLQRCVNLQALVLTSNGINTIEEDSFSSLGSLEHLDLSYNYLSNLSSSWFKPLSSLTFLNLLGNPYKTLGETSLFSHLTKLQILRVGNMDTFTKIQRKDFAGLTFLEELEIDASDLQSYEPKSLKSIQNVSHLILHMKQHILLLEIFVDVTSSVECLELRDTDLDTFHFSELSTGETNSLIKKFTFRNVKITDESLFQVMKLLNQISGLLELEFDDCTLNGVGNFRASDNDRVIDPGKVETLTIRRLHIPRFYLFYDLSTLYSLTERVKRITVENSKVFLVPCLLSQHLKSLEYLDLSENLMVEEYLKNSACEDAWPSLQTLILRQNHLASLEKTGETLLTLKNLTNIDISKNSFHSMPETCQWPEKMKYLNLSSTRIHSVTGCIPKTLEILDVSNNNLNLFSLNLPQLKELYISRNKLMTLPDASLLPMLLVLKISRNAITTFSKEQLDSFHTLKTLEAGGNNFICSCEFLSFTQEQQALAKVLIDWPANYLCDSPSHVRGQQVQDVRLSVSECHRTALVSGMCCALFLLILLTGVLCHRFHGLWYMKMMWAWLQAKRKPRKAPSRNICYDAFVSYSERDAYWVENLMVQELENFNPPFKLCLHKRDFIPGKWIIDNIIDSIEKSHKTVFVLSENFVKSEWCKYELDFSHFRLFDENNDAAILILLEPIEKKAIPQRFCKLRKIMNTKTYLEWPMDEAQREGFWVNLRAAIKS

Legend:
[1] = molecular target: T1, Recombinant Human Apo-SAA1 (serum amyloid A1) (human) (UniProt P0DJI8); experiment: co-IP; lysate of rhSAA1-treated LX-2 cells in co-IP buffer; precipitated with anti-SAA1 (sc-52211) or anti-TLR2 (sc-166900) overnight at 4 °C, protein A/G magnetic beads 1 hour at RT; read by silver staining and western blot; IgG as negative control
T1 sequence: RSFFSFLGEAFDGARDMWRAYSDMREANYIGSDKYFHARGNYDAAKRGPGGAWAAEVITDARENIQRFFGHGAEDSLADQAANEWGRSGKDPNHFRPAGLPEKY

[2] = molecular target: Toll-like receptor 2 (human (endogenous in LX-2)) (UniProt O60603); experiment: as above

binding [1]: binds
Molecule: Toll-like receptor 2 (from UniProt O60603 21-784)

binding [2]: binds
B1: Recombinant Human Apo-SAA1 (serum amyloid A1) (ligand, UniProt P0DJI8 19-122)
chain: T1 sequence
